# Assay results: PubChem BioAssay AID2517 (National Center for Advancing Translational Sciences (NCATS), 2010)
# By UniProt entry, the sequences of proteins in these tests, tags left out.
# UniProt P27695, whole entry, looked up: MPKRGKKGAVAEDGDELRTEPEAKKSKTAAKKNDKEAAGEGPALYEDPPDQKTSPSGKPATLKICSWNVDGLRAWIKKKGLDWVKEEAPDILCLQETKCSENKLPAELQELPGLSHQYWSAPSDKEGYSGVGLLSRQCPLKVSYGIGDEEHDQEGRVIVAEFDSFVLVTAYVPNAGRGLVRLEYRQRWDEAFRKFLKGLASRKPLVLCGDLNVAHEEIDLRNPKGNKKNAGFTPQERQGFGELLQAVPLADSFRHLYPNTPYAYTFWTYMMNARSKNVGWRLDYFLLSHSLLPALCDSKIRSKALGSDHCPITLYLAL
# The whole screen tested about 350,000 compounds, of which about 1,200 (0.34%) were called active. Inconclusive means that the source gave no clear call. Such entries were picked first, then a sample of the others. Calls come from the whole dose curve; as a rule, active = well fitted inhibition curve with a large enough effect; inconclusive = small, poorly fitted or top-dose-only effect; inactive = no such curve, though single readings can be large or run the other way. Potencies beside an inconclusive call are fits to weak or partial responses and may not hold up.
# Molecular target: DNA repair nuclease/redox regulator APEX1 (Homo sapiens) (UniProt P27695)
# Assay: qHTS Assay for Inhibitors of the Human Apurinic/apyrimidinic Endonuclease 1 (APE1); note: nearly all actives have a fitted effect of over 55% in size
# Conditions: recombinant APE1, TAMRA/BHQ-2 abasic DNA cleavage fluorescence; series mostly up to 65.8 µM
# How it was run: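 APE1 at 0.75 nM preincubated 15 min at room temperature with compound. Reaction then started with 50 nM double-stranded THF-abasic substrate labelled with TAMRA/BHQ-2, and 525/598 nm fluorescence read kinetically. Activity taken as third-minus-first read difference, normalized to DMSO and NSC13755 controls.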
# Potency is the fitted concentration of half-maximal effect.
row,Structure (SMILES),Potency
1,COCc1cc(C)nc(SCC(=O)Oc2ccccc2)c1C#N,inactive
2,O=C(NCCc1cccs1)C1CC1,"inconclusive: 0.282 µM [inhibitor, full curve, poor fit]"
3,COc1cc2c(cc1OC)C(=O)N(C)CC2,inactive
4,CC(=O)Nc1nc(-c2ccc3c(c2)OCO3)cs1,"inconclusive: 44.7 µM [inhibitor, partial curve, poor fit]"
5,CC(C)(C)NC[C@H](O)COc1ccccc1C1CCCC1,inactive
6,COc1cccc(S(=O)(=O)NCc2ccc(C(=O)NCc3ccccn3)cc2)c1,inactive
7,CCOC(=O)c1cc(-c2ccc(/C=C3/C(=O)NC(=O)C(C#N)=C3C)o2)ccc1Cl,"inconclusive: 44.7 µM [inhibitor, single point]"
8,Clc1ccc(C2[C@H]3CN(CC4CCCCC4)[C@H](c4ccccc4)C34CC2(c2ccccc2)C4)cn1 (some centres not stated),"inconclusive: 17.8 µM [inhibitor, single point]"
9,C#CCOCCOCCOCCNc1nc(N2CCN(C(=O)CCCCCCCCCCNC(=O)[C@H]([C@@H](C)CC)n3cc(CCCCCN)nn3)CC2)nc(N2CCN(C(=O)CCCCCCCCCCNC(=O)[C@H]([C@@H](C)CC)n3cc(CCCCN=C(N)N)nn3)CC2)n1,"inconclusive: 37.7 µM [inhibitor, single point]"
10,CCC(/C=C1\Sc2ccc(OC)cc2N1CC)=C\c1sc2ccc(OC)cc2[n+]1CCCS(=O)(=O)[O-],"inconclusive: 20 µM [inhibitor, single point]"
11,COc1ccc(N2Cc3cccc(C(=O)O)c3C2=O)cc1,active: 12.6 µM
12,CCN(CC)S(=O)(=O)c1cccc(C(=O)N/N=C/c2ccc(N3CCOCC3)cc2)c1,"inconclusive: 44.7 µM [inhibitor, single point]"
13,O=S(=O)(/C=C/c1ccccc1)Nc1ccc(N2CCOCC2)cc1,"inconclusive: 0.0014 µM [inhibitor, partial curve, poor fit]"
14,Cc1cc2ccccn2c1C(=O)Nc1cccc(Cl)c1,inactive
15,COC1CCCN(Cc2nc(Cc3ccccc3F)no2)C1 (configuration not stated),"inconclusive: 0.0089 µM [inhibitor, full curve]"
16,COC(=O)C(NC(=O)CCc1nnc2ccc(N3CCCCC3)nn12)C(C)C (configuration not stated),inactive
17,O=C(CN1CCOc2ccccc21)N1CCCC1,"inconclusive: 8.91 µM [inhibitor, single point]"
18,Cc1cccc(-c2nnc(SCC(=O)N3c4ccccc4CCc4ccccc43)n2C)c1,"inconclusive: 3.55 µM [inhibitor, single point]"
19,COCCN1C(=O)C(=O)/C(=C(/O)c2cccc(OC)c2)C1c1ccco1 (configuration not stated),"inconclusive: 31.6 µM [inhibitor, single point]"
20,Cn1ncc(-c2ccno2)c1C(=O)O,"inconclusive: 39.8 µM [inhibitor, partial curve]"
21,CCCCn1c(SCC(=O)NC2CCS(=O)(=O)C2)nc2cc(S(N)(=O)=O)ccc21 (configuration not stated),"inconclusive: 44.7 µM [inhibitor, single point]"

row,Structure (SMILES),Potency
1,Cc1ccc(C)c(S(=O)(=O)NCC(=O)Nc2sc3c(c2C(N)=O)CCC(C)C3)c1 (configuration not stated),"inconclusive: 3.16 µM [inhibitor, single point]"
2,CC(C)=CC[N+]1(C)CCCCC1,"inconclusive: 3.98 µM [inhibitor, full curve, poor fit]"
3,CC(=O)Nc1ccc(SCC(c2ccccc2)N2CCN(CC(C)C)CCC2=O)cc1 (configuration not stated),inactive
4,Cc1nn(CCc2nc(-c3ccco3)cs2)c2[nH]c(=O)cc(C(F)(F)F)c12,"inconclusive: 15.8 µM [inhibitor, partial curve]"
5,Clc1ccc(C2=CSC3=Nc4cccc5cccc(c45)N23)cc1,"inconclusive: 8.91 µM [inhibitor, single point]"
6,CC(=O)Nc1ccc(Nc2ccc3c4c(cc(=O)n3C)-c3ccccc3C(=O)c24)cc1,"inconclusive: 10 µM [inhibitor, partial curve]"
7,O=[N+]([O-])c1cccc(-n2nnnc2CN2CCCC2)c1,"inconclusive: 11.2 µM [inhibitor, partial curve]"
8,O=C(/C=C\Nc1ccc2c(c1)OCO2)c1ccc2c(c1)OCO2,"inconclusive: 12.6 µM [inhibitor, partial curve, poor fit]"
9,O=S1(=O)CCN(C(CCO)c2cccc(C(F)(F)F)c2)CC1 (configuration not stated),"inconclusive: 5.01 µM [inhibitor, full curve, poor fit]"
10,N#CC(C#N)=C1C=C2C=C(N3CCCCCC3)CCC2CC1 (configuration not stated),"inconclusive: 44.7 µM [inhibitor, single point]"
11,COC(=O)COc1ccc2cc(-c3ccc(OC)cc3)c(=O)oc2c1,inactive
12,COC(=O)c1ccc(C(NC(=O)OCc2ccccc2)/C(=C/[C@@H](C)C(=O)NCc2cc(C)on2)c2cccnc2)cc1 (some centres not stated),"inconclusive: 11.2 µM [inhibitor, partial curve]"
13,O=c1cc(CN2CCc3ccccc3C2)nc2sccn12,"inconclusive: 7.94 µM [inhibitor, single point]"
14,O=C(CSCCSCC(=O)c1ccco1)c1ccco1,"inconclusive: 39.8 µM [inhibitor, single point]"
15,CCC(=O)Nc1ccc(C(=O)CSc2nnc(-c3ccccc3F)n2C2CC2)cc1,inactive
16,CC1=Nc2ccccc2/C1=C\c1nc(-c2ccc(F)cc2)oc1O,inactive
17,O=c1ccc(Cc2ccccn2)n[nH]1,"inconclusive: 8.91 µM [inhibitor, single point]"
18,O=C(O)c1cc(-c2ccc(/C=C3\NC(=O)N(c4ccccc4)C3=O)o2)ccc1Cl,active: 25.1 µM
19,Cc1ccc(CNC(=O)C2CC(=O)N(CCC(C)C)C2)cc1 (configuration not stated),"inconclusive: 8.91 µM [inhibitor, single point]"
20,Cn1c(=O)n2n(c1=O)[C@H]1[C@H](O)[C@H]3O[C@@H]3/C(=N/OCc3ccccc3)[C@@H]1CC2,"inconclusive: 4.47 µM [inhibitor, single point]"
21,CCOc1ccccc1C(=O)NC(C(=O)NCc1ccc(F)cc1)C(C)C (configuration not stated),"inconclusive: 3.16 µM [inhibitor, full curve, poor fit]"

# 8 entries from above, with tabs.
row	Structure (SMILES)	Potency
1	Cc1ccc(C)c(S(=O)(=O)NCC(=O)Nc2sc3c(c2C(N)=O)CCC(C)C3)c1 (configuration not stated)	inconclusive: 3.16 µM [inhibitor, single point]
7	O=[N+]([O-])c1cccc(-n2nnnc2CN2CCCC2)c1	inconclusive: 11.2 µM [inhibitor, partial curve]
10	N#CC(C#N)=C1C=C2C=C(N3CCCCCC3)CCC2CC1 (configuration not stated)	inconclusive: 44.7 µM [inhibitor, single point]
11	COC(=O)COc1ccc2cc(-c3ccc(OC)cc3)c(=O)oc2c1	inactive
12	COC(=O)c1ccc(C(NC(=O)OCc2ccccc2)/C(=C/[C@@H](C)C(=O)NCc2cc(C)on2)c2cccnc2)cc1 (some centres not stated)	inconclusive: 11.2 µM [inhibitor, partial curve]
17	O=c1ccc(Cc2ccccn2)n[nH]1	inconclusive: 8.91 µM [inhibitor, single point]
18	O=C(O)c1cc(-c2ccc(/C=C3\NC(=O)N(c4ccccc4)C3=O)o2)ccc1Cl	active: 25.1 µM
20	Cn1c(=O)n2n(c1=O)[C@H]1[C@H](O)[C@H]3O[C@@H]3/C(=N/OCc3ccccc3)[C@@H]1CC2	inconclusive: 4.47 µM [inhibitor, single point]
